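293T-iDUX4 cells carrying a ZSCAN4-driven Gaussia luciferase and a tet-on Italica luciferase control; the gap between the two luminescence signals is read after 24 h. The test concentration is not given here. Percent difference between the Gaussia and Italica channels; more negative values mean more selective suppression of the DUX4 reporter, and higher values mean less activity.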

Values are in %. The controls that fix the scale are not given here. Common to all entries: measured here: selective DUX4 reporter inhibition. Part of the compounds only, not a random draw; the main read-out is not listed here.

| # | compound | Gaussia minus Italica difference (%) |
|---|---|---|
| 1 | `C[C@H](CO)N1C[C@H](C)[C@@H](CN(C)Cc2ccc(Oc3ccccc3)cc2)OCc2ccccc2-c2ccccc2C1=O` | -15.13 |
| 2 | `COc1ccc(CN2CC3(CN(C(=O)Cc4ccccc4)C3)c3c([nH]c4cc(OC)ccc34)[C@H]2CO)cc1` | -10.62 |
| 3 | `Cc1cccc(-c2ccc([C@@H]3[C@@H](CO)N4CCCCN(S(=O)(=O)c5cccs5)C[C@H]34)cc2)c1` | -15.95 |
| 4 | `C[C@H]1CN([C@@H](C)CO)C(=O)c2c(c3ccccc3n2C)-c2ccccc2CO[C@@H]1CN(C)Cc1ccc(Oc2ccccc2)cc1` | -21.28 |
| 5 | `COc1cccc(-c2ccc3c(c2)[C@@H]2[C@@H](CCN2C(=O)Nc2ccccc2OC)[C@@H](CO)N3C)c1` | 16.27 |
| 6 | `COc1ccccc1NC(=O)N1C[C@@H]2N[C@H](C1)C2c1ccc(-c2cccc(C#N)c2)cc1` (stereo not given in full) | -16.57 |
| 7 | `Cc1ccc(S(=O)(=O)N2CC[C@@H]3[C@H](CO)Nc4ccc(-c5ccc(C#N)cc5)cc4[C@@H]32)cc1` | 3.614 |
| 8 | `CN(C)C(=O)c1ccc(-c2ccc(C3[C@@H]4CN(S(=O)(=O)c5ccccc5)C[C@H]3N4)cc2)cc1` (stereo not given in full) | -15.15 |
| 9 | `Cc1ccccc1S(=O)(=O)N1C[C@H](O)COC[C@H]2O[C@@H](CC(=O)N3CCC(Cc4ccccc4)CC3)CC[C@@H]21` | -15.65 |
| 10 | `COc1ccc2c3c(n(C)c2c1)[C@H](CO)N(C)CC31CCN(C(=O)c2ccccc2F)CC1` | -10.67 |
| 11 | `C[C@@H]1CN([C@H](C)CO)C(=O)c2c(c3ccccc3n2C)-c2ccccc2CO[C@@H]1CN(C)C(=O)[C@@H](Cc1ccccc1)N(C)C` | 3.686 |
| 12 | `CCOC(=O)N(C)C[C@@H]1OCc2ccccc2-c2c(n(C)c3ccccc23)C(=O)N([C@H](C)CO)C[C@@H]1C` | -2.211 |
| 13 | `CO[C@H]1CN(C)C(=O)c2cc(NC(=O)Nc3ccc(Cl)c(Cl)c3)ccc2OC[C@@H](C)NC[C@H]1C` | -5.186 |
| 14 | `CN1c2ccc(-c3cccc(C#N)c3)cc2[C@@H]2[C@@H](CCN2C(=O)CC2CC2)[C@H]1CO` | -11.81 |
| 15 | `COc1ccc2c3c(n(C)c2c1)[C@H](CO)N(C(=O)Nc1ccccc1F)CC31CCN(C(=O)c2ccccc2)CC1` | -0.7434 |
| 16 | `CN(C)C(=O)c1ccc(-c2ccc3c(c2)[C@H]2[C@H](CCN2C(=O)c2ccccc2)[C@H](CO)N3)cc1` | -19.19 |
| 17 | `CN1c2ccc(C#Cc3cccnc3)cc2[C@H]2[C@H](CCN2S(=O)(=O)c2ccccc2)[C@@H]1CO` | -8.456 |
| 18 | `C[C@H]1CN([C@@H](C)CO)C(=O)c2ccccc2-c2ccccc2CO[C@@H]1CN(C)Cc1ccc(C(F)(F)F)cc1` | -5.558 |
| 19 | `O=C(Nc1ccc(F)cc1)N1CCCCN2[C@H](CO)[C@@H](c3ccc(C#Cc4ccccc4)cc3)[C@@H]2C1` | -2.55 |
| 20 | `COc1ccc2c3c([nH]c2c1)[C@@H](CO)N(CC1CCCCC1)CC31CN(C(=O)C2CCOCC2)C1` | -17.28 |
| 21 | `COc1ccccc1S(=O)(=O)N1CC[C@@H]2[C@@H](CO)N(C)c3ccc(-c4ccc(C#N)cc4)cc3[C@@H]21` | -7.321 |
| 22 | `C[C@@H]1CN([C@@H](C)CO)C(=O)CCCn2cc(nn2)CO[C@@H]1CN(C)Cc1ccc(C(=O)Nc2ccccc2N)cc1` | -21.1 |
| 23 | `COc1ccccc1NC(=O)N1CCCCN2[C@H](CO)[C@@H](c3ccc(C#CC4CCCC4)cc3)[C@@H]2C1` | -13.68 |
| 24 | `O=C(Cc1ccccc1)N1CC[C@@H]2[C@@H](CO)Nc3ccc(-c4ccc(F)cc4)cc3[C@@H]21` | 2.413 |
| 25 | `COc1ccc2c3c([nH]c2c1)[C@H](CO)N(Cc1ccccc1)CC31CCN(S(C)(=O)=O)CC1` | -17.58 |
| 26 | `O=C(CN1CCOCC1)N1CCCCN2[C@H](C1)[C@H](c1ccc(C#Cc3ccccc3F)cc1)[C@@H]2CO` | -4.042 |
| 27 | `COc1cccc(S(=O)(=O)Nc2ccc3c(c2)C(=O)N(C)C[C@@H](OC)[C@H](C)CN(Cc2ccccc2F)[C@@H](C)CO3)c1` | -15.15 |
| 28 | `O=C(C1CC1)N1CC2(C1)[C@H](c1ccccc1)[C@@H](CO)N2Cc1ccc(Cl)cc1` | -19.67 |
| 29 | `O=C(C1CCCC1)N1CC2(C1)[C@H](c1ccccc1)[C@H](CO)N2Cc1ccc(Cl)cc1` | -7.005 |
| 30 | `CN(C)c1ccc2c(c1)[C@@H]1C[C@@H](CC(=O)NCc3ccc(-c4ccccc4)cc3)O[C@H](CO)[C@@H]1O2` | -3.526 |
| 31 | `O=C(c1ccccc1)N1CC(=O)N2[C@H](CO)[C@H](c3ccc(/C=C/c4ccccc4)cc3)[C@H]2C1` | 2.842 |
| 32 | `C[C@@H]1CCCCO[C@@H](CN(C)CC2CCCCC2)[C@H](C)CN([C@H](C)CO)C(=O)c2cc(NC(=O)C3CCCCC3)ccc2O1` | 0.1485 |
| 33 | `OC[C@H]1[C@@H](c2ccc(/C=C/c3ccccc3)cc2)[C@@H]2CN(Cc3ccncc3)CCCCN12` | -9.752 |
| 34 | `OC[C@H]1Nc2ccc(C#Cc3ccccc3)cc2[C@@H]2[C@H]1CCN2Cc1nccs1` | -19.93 |
| 35 | `O=C(C[C@H]1CC[C@@H]2[C@H](COC[C@H](O)CN2Cc2cccc(C(F)(F)F)c2)O1)NCc1ccc(F)cc1` | 6.997 |
| 36 | `CCCN1[C@@H]2Cn3c(cccc3=O)[C@H]1[C@@H](C(=O)N[C@@H](C)c1ccccc1)[C@@H]2CO` | -6.454 |
| 37 | `C[C@H]1CN([C@@H](C)CO)C(=O)c2c(c3ccccc3n2C)-c2ccccc2CO[C@@H]1CN(C)S(=O)(=O)c1cccc(F)c1` | -7.169 |
| 38 | `C[C@@H](NC(=O)C[C@@H]1CC[C@@H]2[C@H](COC[C@@H](O)CN2C(=O)Nc2cc(Cl)cc(Cl)c2)O1)c1ccccc1` | 2.397 |
| 39 | `COC(=O)[C@H]1[C@H](CO)[C@H]2Cn3c(ccc(/C=C/c4ccccc4)c3=O)[C@H]2N1CC1CCCCC1` | -13.24 |
| 40 | `O=C(Nc1ccc(F)cc1)N1CCCCN2[C@H](CO)[C@H](c3ccc(-c4cccc(F)c4)cc3)[C@H]2C1` | 16.25 |
| 41 | `O=C(C[C@H]1C[C@H]2c3cc(NS(=O)(=O)c4ccc(F)cc4)ccc3O[C@H]2[C@H](CO)O1)NCc1ccc(Oc2ccccc2)cc1` | -3.14 |
| 42 | `COc1ccccc1NC(=O)N1CC(=O)N2[C@@H](CO)[C@@H](c3ccc(C#CC(C)C)cc3)[C@@H]2C1` | -3.028 |
| 43 | `COCC(=O)Nc1ccc2c(c1)C(=O)N(C)C[C@@H](OC)[C@H](C)CN(CCc1ccccc1)[C@H](C)CO2` | -9.596 |
| 44 | `OC[C@@H]1[C@@H](c2ccc(C#Cc3ccccc3)cc2)[C@@H]2CN(CC3CCOCC3)CCCCN12` | -6.912 |
| 45 | `CCS(=O)(=O)N1CC2(CN(Cc3cccc(Cl)c3)[C@H](CO)c3c2c2ccc(OC)cc2n3C)C1` | -0.7645 |
| 46 | `O=C(C[C@H]1CC[C@H]2[C@@H](COC[C@@H](O)CN2S(=O)(=O)c2ccccc2F)O1)N1CCC(Cc2ccccc2)CC1` | -13.03 |
| 47 | `COc1ccc(-c2ccc3c(c2)[C@H]2[C@H](CCN2S(=O)(=O)c2ccccc2C)[C@H](CO)N3)cc1` | 15.12 |
| 48 | `N#Cc1cccc(-c2ccc(C3[C@@H]4CN(C(=O)c5ccccn5)C[C@H]3N4)cc2)c1` (stereo not given in full) | -9.388 |
| 49 | `O=C(C[C@@H]1CC[C@@H]2[C@H](COC[C@H](O)CN2C(=O)c2cc(Cl)cc(Cl)c2)O1)N1CCc2ccccc2C1` | -9.391 |
| 50 | `C[C@@H]1CN([C@H](C)CO)C(=O)c2c(c3ccccc3n2C)-c2ccccc2CO[C@H]1CN(C)C(=O)Nc1cccc(C(F)(F)F)c1` | -18.65 |

6 of the entries, repeated:

* Cc1ccc(S(=O)(=O)N2CC[C@@H]3[C@H](CO)Nc4ccc(-c5ccc(C#N)cc5)cc4[C@@H]32)cc1 | Gaussia minus Italica difference 3.614%
* C[C@@H](NC(=O)C[C@@H]1CC[C@@H]2[C@H](COC[C@@H](O)CN2C(=O)Nc2cc(Cl)cc(Cl)c2)O1)c1ccccc1 | Gaussia minus Italica difference 2.397%
* COCC(=O)Nc1ccc2c(c1)C(=O)N(C)C[C@@H](OC)[C@H](C)CN(CCc1ccccc1)[C@H](C)CO2 | Gaussia minus Italica difference -9.596%
* OC[C@@H]1[C@@H](c2ccc(C#Cc3ccccc3)cc2)[C@@H]2CN(CC3CCOCC3)CCCCN12 | Gaussia minus Italica difference -6.912%
* CCOC(=O)N(C)C[C@@H]1OCc2ccccc2-c2c(n(C)c3ccccc23)C(=O)N([C@H](C)CO)C[C@@H]1C | Gaussia minus Italica difference -2.211%
* COc1ccccc1NC(=O)N1CCCCN2[C@H](CO)[C@@H](c3ccc(C#CC4CCCC4)cc3)[C@@H]2C1 | Gaussia minus Italica difference -13.68%

The results are deposited in PubChem (AID1224904; Broad Institute, 2016).